Test results from US4264576A, “Contraceptive methods and compositions” (Eli Lilly and Company, priority 1980, dated 1981).
The name of at least one read-out is uncertain.

Target: T1, Testicular bovine hyaluronidase (Bos taurus, UniProt F1MTV1)
T1 construct: known to be a fragment of GPI-anchored PH-20 lacking the C-terminal anchor
T1 sequence (F1MTV1 36-553): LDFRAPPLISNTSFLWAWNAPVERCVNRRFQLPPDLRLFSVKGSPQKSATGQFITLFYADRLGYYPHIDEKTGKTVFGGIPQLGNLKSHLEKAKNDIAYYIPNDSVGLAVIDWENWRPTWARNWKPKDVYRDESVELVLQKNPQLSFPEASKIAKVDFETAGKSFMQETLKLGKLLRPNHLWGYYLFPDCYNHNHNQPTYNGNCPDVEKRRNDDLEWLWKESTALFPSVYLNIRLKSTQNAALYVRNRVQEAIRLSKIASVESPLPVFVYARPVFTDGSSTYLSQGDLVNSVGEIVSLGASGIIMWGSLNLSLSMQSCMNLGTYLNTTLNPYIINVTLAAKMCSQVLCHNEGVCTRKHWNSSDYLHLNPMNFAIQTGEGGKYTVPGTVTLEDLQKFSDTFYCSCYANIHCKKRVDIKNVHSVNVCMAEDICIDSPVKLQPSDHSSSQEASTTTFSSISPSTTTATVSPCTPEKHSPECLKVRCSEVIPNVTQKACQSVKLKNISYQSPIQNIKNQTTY
Test: Hyaluronidase inhibition in vitro (chondroitin sulfate agar plate)
Assay type: biochemical
Details: test compound solution 1.0 mg/ml; 960 min

Substance	Inhibition [%/mg]
sodium sulfopropyl 15-methylheptadecanoate	13
sodium sulfopropyl 16-methylheptadecanoate	13
